In the supplement of paper PMC10331698:
± gives the standard deviation of the averaged measurements. Most entries show no effect beyond the scatter of the controls.

Experiments:
Assay in all cases: level (log10 ratio to DMSO vehicle control); higher = higher biomarker level / cell amount than vehicle control
[1] = compound: NC(=O)C(F)(F)C(F)(F)C(F)(F)C(F)(F)C(F)(F)C(F)(F)C(F)(F)F [Perfluorooctanamide]; conditions: 2200 nM; in DMSO
Description: (§1)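 BioMAP Diversity Plus panel of 12 human primary cell co-culture systems (3C, 4H, LPS, SAg, BT, BF4T, BE3C, CASM3C, HDF3CGF, KF3CT, MyoF, Mphg). Compounds were added 1 h before stimulation and left for 24 h (MyoF 48 h; BT 72 h for soluble read-outs or 6 d for IgG). Biomarkers were read by ELISA, cytotoxicity by SRB, PBMC viability and proliferation by Alamar Blue. Each well value was divided by the mean of 8 DMSO control wells on the same plate and log10 transformed; duplicate blinded samples were tested at 4 concentrations.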

[2] = compound: O=C(O)C(F)(F)OC(F)(F)C(F)(F)OC(F)(F)C(=O)O [Perfluoro-3,6-dioxaoctane-1,8-dioic acid]; conditions: 2200 nM; in DMSO
Description: as §1

[3] = compound: O=C(O)C(F)(F)C(F)(F)C(F)(F)C(F)(F)C(F)(F)C(F)(F)C(F)(F)C(F)(F)C(F)(F)C(F)(F)F [Perfluoroundecanoic acid]; conditions: in DMSO
Description: as §1

[4] = compound: O=P(O)(O)CCC(F)(F)C(F)(F)C(F)(F)C(F)(F)C(F)(F)C(F)(F)C(F)(F)C(F)(F)F [((Perfluorooctyl)ethyl)phosphonic acid]; conditions: 2200 nM; in DMSO
Description: as §1

[5] = compound: OCC(F)(F)C(F)(F)C(F)(F)C(F)(F)C(F)(F)C(F)(F)C(F)(F)C(F)(F)C(F)(F)C(F)(F)C(F)(F)F [11:1 Fluorotelomer alcohol]; conditions: in DMSO
Description: as §1

[6] = compound: O=C(O)C(F)(F)C(F)(F)C(F)(F)F [Perfluorobutanoic acid]; conditions: 2200 nM; in DMSO
Description: as §1

[7] = compound: C=C(C)C(=O)OCC(F)(F)C(F)(F)C(F)(F)F [2,2,3,3,4,4,4-Heptafluorobutyl methacrylate]; conditions: 2200 nM; in DMSO
Description: as §1

[8] = compound: FC(F)(F)C(F)(F)C(F)(F)C(F)(F)C(F)(F)C(F)(F)C(F)(F)I [1-Iodopentadecafluoroheptane]; conditions: in DMSO
Description: as §1

[9] = compound: C=CC(=O)OCC(F)(F)C(F)(F)C(F)(F)C(F)(F)COC(=O)C=C [1H,1H,6H,6H-Perfluorohexane-1,6-diol diacrylate]; conditions: 2200 nM; in DMSO
Description: as §1

[10] = compound: O=C(O)C(F)(F)C(F)(F)OC(F)(F)F [Perfluoro-3-methoxypropanoic acid]; conditions: 2200 nM; in DMSO
Description: as §1

[11] = compound: OCCC(F)(F)C(F)(F)C(F)(F)C(F)(F)C(F)(F)C(F)(F)C(F)(F)C(F)(F)F [8:2 Fluorotelomer alcohol]; conditions: 2200 nM; in DMSO
Description: as §1

[12] = compound: O=S(=O)(Cl)C(F)(F)C(F)(F)C(F)(F)C(F)(F)C(F)(F)C(F)(F)C(F)(F)C(F)(F)F [Perfluoro-1-octanesulfonyl chloride]; conditions: 2200 nM; in DMSO
Description: as §1

[13] = compound: O=C(O)C(F)(F)C(F)(F)C(F)(F)C(F)(F)C(F)(F)C(F)(F)C(F)(F)C(F)F [9-H-Perfluorononanoic acid]; conditions: 2200 nM; in DMSO
Description: as §1

[14] = compound: O=C(O)C(F)(F)C(F)(F)F [Perfluoropropanoic acid]; conditions: 2200 nM; in DMSO
Description: as §1

[15] = compound: O=C(O)C=CC(F)(C(F)(F)F)C(F)(F)F [3-(Perfluoroisopropyl)-2-propenoic acid]; conditions: in DMSO
Description: as §1

[16] = compound: FC(F)(F)C(F)(F)C(F)(F)C(F)(F)C(F)(F)C(F)(F)C(F)(F)CCI [1-Iodo-1H,1H,2H,2H-perfluorononane]; conditions: in DMSO
Description: as §1

[17] = compound: O=C(O)C(F)(F)OC(F)(F)C(F)(F)OC(F)(F)C(F)(F)C(F)(F)C(F)(F)F [Perfluoro-3,6-dioxadecanoic acid]; conditions: 2200 nM; in DMSO
Description: as §1

[18] = compound: FC(F)C(F)(F)COCC1CO1 [((2,2,3,3-Tetrafluoropropoxy)methyl)oxirane]; conditions: 2200 nM; in DMSO
Description: as §1

Test System	level (log10) [1]	level (log10) [2]	level (log10) ([3]; 740 nM)	level (log10) ([3]; 2200 nM)	level (log10) [4]	level (log10) ([5]; 370 nM)	level (log10) ([5]; 1100 nM)	level (log10) ([5]; 3300 nM)	level (log10) ([5]; 10000 nM)	level (log10) [6]	level (log10) [7]	level (log10) ([8]; 740 nM)	level (log10) ([8]; 2200 nM)	level (log10) ([8]; 6700 nM)	level (log10) ([8]; 20000 nM)	level (log10) [9]	level (log10) [10]	level (log10) [11]	level (log10) [12]	level (log10) [13]	level (log10) [14]	level (log10) ([15]; 2200 nM)	level (log10) ([15]; 6700 nM)	level (log10) ([15]; 20000 nM)	level (log10) ([15]; 60000 nM)	level (log10) ([16]; 740 nM)	level (log10) ([16]; 2200 nM)	level (log10) ([16]; 6700 nM)	level (log10) ([16]; 20000 nM)	level (log10) [17]	level (log10) [18]
HDF3CGF:Collagen III	0.013 ± 0.018	0.0025 ± 0.039	-0.0025 ± 0.0021	-0.009 ± 0.0071	-0.0665 ± 0.018	0.0815 ± 0.044	0.2 ± 0.0021	0.168 ± 0.057	0.171 ± 0.0042	0.0115 ± 0.039	-0.127 ± 0.052	-0.0255 ± 0.00071	-0.01 ± 0.0099	-0.024 ± 0.014	-0.023 ± 0.028	0.12 ± 0.073	0.004 ± 0.023	0.042 ± 0.033	0.0135 ± 0.032	-0.0545 ± 0.037	-0.0215 ± 0.052	-0.0075 ± 0.042	-0.0125 ± 0.00071	0.009 ± 0.0014	0.033 ± 0.038	-0.0005 ± 0.021	-0.0035 ± 0.025	-0.063 ± 0.023	-0.138 ± 0.028	-0.0015 ± 0.039	-0.016 ± 0.0099
MyoF:CXCL8/IL-8	0.01 ± 0.044	0.012 ± 0.067	-0.0025 ± 0.0021	-0.018 ± 0.0085	0.02 ± 0.038	-0.0125 ± 0.076	-0.0155 ± 0.035	-0.0145 ± 0.037	0 ± 0.04	-0.003 ± 0.13	0.031 ± 0.0028	-0.027 ± 0.054	-0.0235 ± 0.022	0.028 ± 0.018	0.034 ± 0.038	-0.0195 ± 0.011	0.0245 ± 0.063	0.0075 ± 0.037	-0.0015 ± 0.0064	0.015 ± 0.0014	-0.0015 ± 0.026	-0.02 ± 0.0042	-0.0445 ± 0.0064	-0.032 ± 0.0028	-0.0025 ± 0.019	0.018 ± 0.0071	0.001 ± 0.027	0.0195 ± 0.0064	0.0335 ± 0.025	-0.0055 ± 0.0078	0.006 ± 0.028
BT:Secreted IgG	-0.0025 ± 0.047	-0.0145 ± 0.0035	-0.0095 ± 0.0092	0.0065 ± 0.0078	0.013 ± 0.0057	0.005 ± 0.016	0.007 ± 0.025	0.0025 ± 0.033	-0.014 ± 0.054	-0.006 ± 0.04	0.0015 ± 0.071	-0.007 ± 0.044	-0.006 ± 0.017	-0.006 ± 0.05	-0.01 ± 0.044	-0.0595 ± 0.05	0.0255 ± 0.053	0.0025 ± 0.06	-0.009 ± 0.0085	-0.019 ± 0.014	0.0305 ± 0.012	-0.036 ± 0.03	-0.041 ± 0.048	-0.0035 ± 0.016	-0.0205 ± 0.013	0.0075 ± 0.0078	0.0135 ± 0.0092	-0.0075 ± 0.06	0.0115 ± 0.074	0.0655 ± 0.025	0.0515 ± 0.022
MyoF:Collagen III	-0.005 ± 0.031	0.0005 ± 0.012	-0.009 ± 0.0028	-0.0175 ± 0.005	-0.006 ± 0.014	-0.0035 ± 0.0021	0.011 ± 0.0085	-0.0005 ± 0.00071	-0.001 ± 0.0071	-0.0095 ± 0.0092	-0.002 ± 0.018	-0.005 ± 0.0042	-0.0295 ± 0.0092	-0.0365 ± 0.005	-0.311 ± 0.093	-0.0015 ± 0.016	-0.0035 ± 0.026	-0.0045 ± 0.0078	-0.018 ± 0.02	-0.0095 ± 0.011	0.0265 ± 0.0064	0.003 ± 0.025	-0.0055 ± 0.022	0.003 ± 0.0071	0.0075 ± 0.005	0 ± 0.0071	0.0035 ± 0.005	0.0145 ± 0.0021	-0.0055 ± 0.03	-0.006 ± 0.0014	0.003 ± 0.0042
